Results as given in article doi:10.1101/2024.01.11.574638.
Results are given in words; binding and its absence hold for the method and conditions named. In cells and extracts the contact can be indirect. Some results given as binding are weak or reduced against the parent protein; the word gives no strength. For some assays here: Where a sequence is shown, tags or fusion partners need not be part of it.

Sequences of proteins named here, by UniProt entry; tags and fusion partners are left off.
UniProt Q8N895: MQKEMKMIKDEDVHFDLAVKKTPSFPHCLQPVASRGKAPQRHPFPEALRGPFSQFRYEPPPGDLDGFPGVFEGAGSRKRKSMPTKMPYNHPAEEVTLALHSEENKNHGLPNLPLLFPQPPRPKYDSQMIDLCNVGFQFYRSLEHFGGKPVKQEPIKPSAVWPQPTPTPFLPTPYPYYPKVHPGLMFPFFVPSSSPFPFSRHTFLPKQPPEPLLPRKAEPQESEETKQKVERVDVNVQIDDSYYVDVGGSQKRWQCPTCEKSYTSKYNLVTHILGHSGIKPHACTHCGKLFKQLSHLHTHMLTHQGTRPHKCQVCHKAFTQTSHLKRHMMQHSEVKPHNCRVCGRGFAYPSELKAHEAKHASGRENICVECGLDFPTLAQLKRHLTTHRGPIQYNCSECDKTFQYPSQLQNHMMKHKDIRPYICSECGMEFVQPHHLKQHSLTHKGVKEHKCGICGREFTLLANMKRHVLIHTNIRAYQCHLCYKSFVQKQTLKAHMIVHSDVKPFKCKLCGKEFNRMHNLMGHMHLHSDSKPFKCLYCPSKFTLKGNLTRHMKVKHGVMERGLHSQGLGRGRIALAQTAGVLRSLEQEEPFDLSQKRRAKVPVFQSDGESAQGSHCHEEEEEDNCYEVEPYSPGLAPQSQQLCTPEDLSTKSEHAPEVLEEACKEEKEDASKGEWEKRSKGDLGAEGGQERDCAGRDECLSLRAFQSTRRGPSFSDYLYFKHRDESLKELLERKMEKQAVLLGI

T1: murine DC-SCRIPT (ZFP366), Myc-DDK tagged (mouse) (UniProt Q6NS86)
T1 sequence: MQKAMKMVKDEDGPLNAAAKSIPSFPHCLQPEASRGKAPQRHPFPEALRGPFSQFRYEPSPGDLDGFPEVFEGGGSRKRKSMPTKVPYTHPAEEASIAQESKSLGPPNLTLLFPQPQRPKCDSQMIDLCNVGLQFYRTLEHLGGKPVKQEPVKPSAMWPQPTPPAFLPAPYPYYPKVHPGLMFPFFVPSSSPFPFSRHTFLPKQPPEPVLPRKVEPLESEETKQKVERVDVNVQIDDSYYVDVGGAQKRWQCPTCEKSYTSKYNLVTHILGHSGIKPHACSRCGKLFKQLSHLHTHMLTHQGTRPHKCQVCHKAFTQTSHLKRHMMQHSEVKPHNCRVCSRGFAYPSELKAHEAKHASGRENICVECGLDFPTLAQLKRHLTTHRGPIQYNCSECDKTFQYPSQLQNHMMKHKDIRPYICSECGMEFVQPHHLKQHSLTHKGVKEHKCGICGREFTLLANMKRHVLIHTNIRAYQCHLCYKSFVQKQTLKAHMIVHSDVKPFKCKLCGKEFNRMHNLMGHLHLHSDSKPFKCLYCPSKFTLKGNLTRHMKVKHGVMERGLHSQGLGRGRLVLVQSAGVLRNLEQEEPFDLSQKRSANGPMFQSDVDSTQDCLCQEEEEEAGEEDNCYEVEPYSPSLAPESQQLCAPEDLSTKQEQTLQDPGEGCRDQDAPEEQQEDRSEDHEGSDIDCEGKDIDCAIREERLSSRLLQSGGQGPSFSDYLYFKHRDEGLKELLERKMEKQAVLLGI


Columns and labels:
human DC-SCRIPT (human) = human DC-SCRIPT (human) (UniProt Q8N895); experiment: co-IP
[1] = target: T1, murine DC-SCRIPT (ZFP366), Myc-DDK tagged (mouse); experiment: co-IP

binding (human DC-SCRIPT (human)) | binding [1] | Binder
binds |  | human IRF7 (isoform a) (protein, UniProt Q92985 1-503) MALAPERAAPRVLFGEWLLGEISSGCYEGLQWLDEARTCFRVPWKHFARKDLSEADARIFKAWAVARGRWPPSSRGGGPPPEAETAERAGWKTNFRCALRSTRRFVMLRDNSGDPADPHKVYALSRELCWREGPGTDQTEAEAPAAVPPPQGGPPGPFLAHTHAGLQAPGPLPAPAGDKGDLLLQAVQQSCLADHLLTASWGADPVPTKAPGEGQEGLPLTGACAGGPGLPAGELYGWAVETTPSPGPQPAALTTGEAAAPESPHQAEPYLSPSPSACTAVQEPSPGALDVTIMYKGRTVLQKVVGHPSCTFLYGPPDPAVRATDPQQVAFPSPAELPDQKQLRYTEELLRHVAPGLHLELRGPQLWARRMGKCKVYWEVGGPPGSASPSTPACLLPRNCDTPIFDFRVFFQELVEFRARQRRGSPRYTIYLGFGQDLSAGRPKEKSLVLVKLEPWLCRVHLEGTQREGVSSLDSSSLSLCLSSANSLYDDIECFLMELEQPA
 | binds | murine IRF7 (isoform a) (protein, UniProt P70434 1-457) MAEVRGVQRVLFGDWLLGEVSSGQYEGLQWLNEARTVFRVPWKHFGRRDLDEEDAQIFKAWAVARGRWPPSGVNLPPPEAEAAERRERRGWKTNFRCALHSTGRFILRQDNSGDPVDPHKVYELSRELGSTVGPATENREEVSLSNALPTQGVSPGSFLARENAGLQTPSPLLSSDAGDLLLQVLQYSHILESESGADPVPPQAPGQEQDRVYEEPYAAWQVEAVPSPRPQQPALTERSLGFLDVTIMYKGRTVLQAVVGHPRCVFLYSPMAPAVRTSEPQPVIFPSPAELPDQKQLHYTETLLQHVSPGLQLELRGPSLWALRMGKCKVYWEVGSPMGTTGPSTPPQLLERNRHTPIFDFSTFFRELEEFRARRRQGSPHYTIYLGFGQDLSAGRPKEKTLILVKLEPWVCKAYLEGVQREGVSSLDSSSLGLCLSSTNSLYEDIEHFLMDLGQWP
